Results deposited as PubChem BioAssay AID1508597 (Cure First, 2020).
Shown is a random part of the about 2,100 reagents, under one of the conditions tested. 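Calls flag viability under 80% in either arm, not effects specific to rucaparib; the reference for percent is not stated.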 A reagent listed more than once was tested more than once; the source does not tell the runs apart. Not stated in the record: the 100% reference.

Test: 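Knock-downs altering ovarian cancer cell survival with or without PARP inhibitor rucaparib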 (primary screen)
System: human ovarian carcinoma lines grown from tumours: OCI-P5x (papillary serous) and OCI-C5x (clear cell)
Knock-down reagent: siRNA pool against human genes, 1.25 pmol siRNA per well
Duration: 72 h or 96 h, depending on the cell culture
Challenge: rucaparib 20 µM (about IC30) or vehicle, present until read-out
Rucaparib or vehicle: Vehicle
Cell line: OCI-C5x (clear cell)
Measurement: 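Luminescent ATP-based viability assay read 72 or 96 h after transfection, depending on culture, given as normalised percent viability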
Scale: viability, normalised: higher = more viable cells remaining
Hit rule: 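a well counts as a hit if its normalised viability is under 80 percent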
Meaning of the calls: active = viability under 80%; inactive = viability 80% or more

no.	target	technical replicate	viability, normalised (%)	call
1	MYLK (myosin light chain kinase)	1	128	inactive
2	MYLK (myosin light chain kinase)	1	62.6	active
3	MYLK (myosin light chain kinase)	2	78.4	active
4	MYLK (myosin light chain kinase)	2	68.4	active
5	MYLK (myosin light chain kinase)	3	68.6	active
6	MYLK (myosin light chain kinase)	3	75.3	active
7	ZDHHC1 (zDHHC palmitoyltransferase 1)	1	55.1	active
8	ZDHHC1 (zDHHC palmitoyltransferase 1)	2	58.4	active
9	ZDHHC1 (zDHHC palmitoyltransferase 1)	3	70.2	active
10	PCK1 (phosphoenolpyruvate carboxykinase 1)	1	55.2	active
11	PCK1 (phosphoenolpyruvate carboxykinase 1)	2	50.7	active
12	PCK1 (phosphoenolpyruvate carboxykinase 1)	3	75.4	active
13	L3MBTL4 (L3MBTL histone methyl-lysine binding protein 4)	1	37	active
14	L3MBTL4 (L3MBTL histone methyl-lysine binding protein 4)	2	59.5	active
15	L3MBTL4 (L3MBTL histone methyl-lysine binding protein 4)	3	41.9	active
16	ZNF451 (zinc finger protein 451)	1	18	active
17	ZNF451 (zinc finger protein 451)	2	49.1	active
18	ZNF451 (zinc finger protein 451)	3	29.6	active
19	SBK1 (SH3 domain binding kinase 1)	1	62.3	active
20	SBK1 (SH3 domain binding kinase 1)	2	78.1	active
21	SBK1 (SH3 domain binding kinase 1)	3	44.7	active

Sorted by “viability, normalised (%)” (low to high): 9 of the entries above
target	technical replicate	viability, normalised (%)	call
L3MBTL4 (L3MBTL histone methyl-lysine binding protein 4)	1	37	active
PCK1 (phosphoenolpyruvate carboxykinase 1)	2	50.7	active
ZDHHC1 (zDHHC palmitoyltransferase 1)	1	55.1	active
PCK1 (phosphoenolpyruvate carboxykinase 1)	1	55.2	active
ZDHHC1 (zDHHC palmitoyltransferase 1)	2	58.4	active
L3MBTL4 (L3MBTL histone methyl-lysine binding protein 4)	2	59.5	active
ZDHHC1 (zDHHC palmitoyltransferase 1)	3	70.2	active
MYLK (myosin light chain kinase)	3	75.3	active
PCK1 (phosphoenolpyruvate carboxykinase 1)	3	75.4	active

Next entries:
no.	target	technical replicate	viability, normalised (%)	call
22	KAT2B (lysine acetyltransferase 2B)	1	59.5	active
23	KAT2B (lysine acetyltransferase 2B)	2	63	active
24	KAT2B (lysine acetyltransferase 2B)	3	56.7	active
25	RALY (RALY heterogeneous nuclear ribonucleoprotein)	1	35.9	active
26	RALY (RALY heterogeneous nuclear ribonucleoprotein)	2	46.4	active
27	RALY (RALY heterogeneous nuclear ribonucleoprotein)	3	56.7	active
28	CRY2 (cryptochrome circadian regulator 2)	1	44.1	active
29	CRY2 (cryptochrome circadian regulator 2)	2	58.1	active
30	CRY2 (cryptochrome circadian regulator 2)	3	51.3	active
31	MBTD1 (mbt domain containing 1)	1	45.2	active
32	MBTD1 (mbt domain containing 1)	2	35.6	active
33	MBTD1 (mbt domain containing 1)	3	45.4	active
34	SNAI1 (snail family transcriptional repressor 1)	1	55.2	active
35	SNAI1 (snail family transcriptional repressor 1)	2	51	active
36	SNAI1 (snail family transcriptional repressor 1)	3	56.4	active
37	ERCC1 (ERCC excision repair 1, endonuclease non-catalytic subunit)	1	38.8	active
38	ERCC1 (ERCC excision repair 1, endonuclease non-catalytic subunit)	1	43.9	active
39	ERCC1 (ERCC excision repair 1, endonuclease non-catalytic subunit)	2	45.3	active
40	ERCC1 (ERCC excision repair 1, endonuclease non-catalytic subunit)	2	51.9	active
41	ERCC1 (ERCC excision repair 1, endonuclease non-catalytic subunit)	3	38.8	active
42	ERCC1 (ERCC excision repair 1, endonuclease non-catalytic subunit)	3	48.2	active
43	CLDN7 (claudin 7)	1	34.7	active
44	CLDN7 (claudin 7)	2	38.4	active
45	CLDN7 (claudin 7)	3	37.5	active
46	PIN1 (peptidylprolyl cis/trans isomerase, NIMA-interacting 1)	1	136	inactive
47	PIN1 (peptidylprolyl cis/trans isomerase, NIMA-interacting 1)	2	74.6	active
48	PIN1 (peptidylprolyl cis/trans isomerase, NIMA-interacting 1)	3	69.5	active
49	RAD9A (RAD9 checkpoint clamp component A)	1	40.9	active
50	RAD9A (RAD9 checkpoint clamp component A)	2	49	active
51	RAD9A (RAD9 checkpoint clamp component A)	3	37.5	active
52	UVRAG (UV radiation resistance associated)	1	60.8	active
53	UVRAG (UV radiation resistance associated)	2	59.8	active
54	UVRAG (UV radiation resistance associated)	3	62.3	active
55	BMI1 (BMI1 proto-oncogene, polycomb ring finger)	1	42.2	active
56	BMI1 (BMI1 proto-oncogene, polycomb ring finger)	2	35.5	active
57	BMI1 (BMI1 proto-oncogene, polycomb ring finger)	3	32.3	active
